Source: publication PMC10915761
These are yes or no findings as the source states them, for the method shown. In cells and extracts the contact can be indirect. Some results given as binding are weak or reduced against the parent protein; the word gives no strength.

Protein sequences, listed by entry. Tags and fused reporters are not part of them.
UniProt Q69ZR9: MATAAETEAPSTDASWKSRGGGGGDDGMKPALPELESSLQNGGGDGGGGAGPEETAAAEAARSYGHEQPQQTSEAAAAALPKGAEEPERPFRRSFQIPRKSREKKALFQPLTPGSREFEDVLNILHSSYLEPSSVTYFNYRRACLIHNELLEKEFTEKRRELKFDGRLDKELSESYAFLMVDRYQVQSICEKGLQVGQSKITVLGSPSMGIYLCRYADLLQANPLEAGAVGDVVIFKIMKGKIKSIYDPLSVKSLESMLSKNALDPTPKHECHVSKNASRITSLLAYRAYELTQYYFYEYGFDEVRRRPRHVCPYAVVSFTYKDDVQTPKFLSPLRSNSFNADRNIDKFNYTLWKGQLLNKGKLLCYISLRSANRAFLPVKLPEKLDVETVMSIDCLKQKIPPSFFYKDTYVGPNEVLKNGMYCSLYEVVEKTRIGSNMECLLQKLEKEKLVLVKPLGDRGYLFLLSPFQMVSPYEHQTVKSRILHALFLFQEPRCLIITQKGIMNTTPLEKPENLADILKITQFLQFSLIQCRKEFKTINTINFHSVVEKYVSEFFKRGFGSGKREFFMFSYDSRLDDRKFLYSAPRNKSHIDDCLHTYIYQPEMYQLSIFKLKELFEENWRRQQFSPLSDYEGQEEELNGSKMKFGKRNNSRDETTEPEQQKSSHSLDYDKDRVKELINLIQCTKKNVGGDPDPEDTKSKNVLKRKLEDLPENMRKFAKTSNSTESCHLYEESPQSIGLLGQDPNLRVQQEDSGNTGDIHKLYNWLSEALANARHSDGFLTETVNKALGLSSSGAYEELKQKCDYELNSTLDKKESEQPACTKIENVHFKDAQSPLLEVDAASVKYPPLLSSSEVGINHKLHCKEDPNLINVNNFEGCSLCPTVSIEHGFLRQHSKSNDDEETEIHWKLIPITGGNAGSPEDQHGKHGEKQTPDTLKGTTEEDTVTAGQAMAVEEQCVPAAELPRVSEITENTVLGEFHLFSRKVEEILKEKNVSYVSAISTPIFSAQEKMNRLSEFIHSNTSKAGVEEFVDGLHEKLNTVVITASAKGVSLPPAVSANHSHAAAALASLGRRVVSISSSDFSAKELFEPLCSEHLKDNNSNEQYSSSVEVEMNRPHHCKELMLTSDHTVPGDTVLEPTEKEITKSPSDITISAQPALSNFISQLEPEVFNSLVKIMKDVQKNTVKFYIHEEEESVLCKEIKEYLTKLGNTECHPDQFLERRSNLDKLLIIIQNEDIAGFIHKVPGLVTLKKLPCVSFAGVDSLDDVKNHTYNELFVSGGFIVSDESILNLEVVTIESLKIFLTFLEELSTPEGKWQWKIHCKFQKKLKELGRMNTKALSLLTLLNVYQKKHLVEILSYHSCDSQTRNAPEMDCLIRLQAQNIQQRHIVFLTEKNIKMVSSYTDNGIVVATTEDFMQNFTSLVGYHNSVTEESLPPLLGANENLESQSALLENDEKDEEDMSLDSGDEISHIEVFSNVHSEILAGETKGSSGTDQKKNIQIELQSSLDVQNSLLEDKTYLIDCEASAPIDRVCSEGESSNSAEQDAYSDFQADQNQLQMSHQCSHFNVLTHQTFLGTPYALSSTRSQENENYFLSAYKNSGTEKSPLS
UniProt Q8BFQ4: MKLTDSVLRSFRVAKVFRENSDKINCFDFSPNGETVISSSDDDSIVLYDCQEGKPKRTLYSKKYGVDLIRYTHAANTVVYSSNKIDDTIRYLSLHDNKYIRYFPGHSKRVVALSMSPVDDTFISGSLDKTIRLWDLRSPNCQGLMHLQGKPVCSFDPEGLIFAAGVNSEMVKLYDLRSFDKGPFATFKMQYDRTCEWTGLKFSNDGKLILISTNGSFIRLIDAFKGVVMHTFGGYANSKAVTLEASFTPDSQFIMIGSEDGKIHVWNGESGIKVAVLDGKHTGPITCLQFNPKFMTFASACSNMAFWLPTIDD

Biological target: TASOR-AGH (TASOR endogenously tagged at the C terminus with AID-GFP-HAx3) (mouse (endogenous in R1 mESCs)) (UniProt Q69ZR9)
Experiment: co-IP; HA IP of TASOR-AGH from mESC lysate (GG lysis buffer: 10 mM HEPES, 2 mM MgCl2, 10 mM KCl, 0.5% NP-40, 0.5 mM EDTA, 150 mM NaCl; 4 h at 4C), western blot; with RNaseA at 2 ng/uL during the IP; TASOR with MPP8 also in WDR82 KO cells

| binding | Molecule |
| --- | --- |
| binds | WDR82 (from UniProt Q8BFQ4 1-313) |
| binds | MPP8 (protein, UniProt Q3TYA6 1-858) MAAAAEEGMSAAALVMSVPDSIGRSPESEGVGAGDEEKDAATKGTVAVGDSEEDGEDVFEVERILDMKCEGGKNLYKVRWKGYTSEDDTWEPEVHLEDCKEVLLEFRKKLAENKAKAVRKDIQRLSLNNDIFEADSDSDQQSDTKEDISPRKKKKKIKCKEETSPEDLRKKRTKMGKLKDKFKTELESTSEIIGFDVKTKKRIWEVKEELKDSKKPKKDEIKETKELKKANKRAEVRDLKIKIREDVKENRKTKKERYIESPLESESPNDSLILEDDSEDFISDNREENQNVRSVRDKTAQETVQEGIFEKHLDDLISIEEDAGTRVRRKKTKPRKFEEPKEIKKLESTNAFLERRAIPKKQRNQDKGISNLELNKLPSPVFAQTLKSSRLSGEEKSLKSPDLAEEEKEKKNEPKGKYQKRYDLDKEEKARKEPKVLKSFKEIRNAFDLFKKTTEEKNDVLENNSKREEISLDSKIMNDNKTKDKCSLKEKRNTRDETDTWAYIAAEGDQEVSDSVCQTDETSDGRQPVLSLGMDLQLEWMKLEDFQKHLDGEDEPFITTNRIPNNLLRDAVKNGDYIAVKVALNSNEEYNLDQEDSTGMTLVMLAAAGGQDDLLRLLITKGAKVNGRQKNGTTALIHAAEKNFLTTVAILLEAGAFVNVQQSNGETALMKACKRGNSDIVRLVIECGADCNILSKHQNSALYFAKQCNNVLVYELLKSHLETLSRVAEETIRDYFESRLALLEPVFPIACHRLCEGPDFSTDFNYMPPQNMPEGSGVLLFIFHANFLGKDVIARLCGPCSVQAVVLNDKFQLPVFLDSHFVYSFSPVAGPNKLFIRLTEAPFAKVKLLIGAYRVQLQ |
